Experimental data taken from patent US8207131B2 (Megmilk Snow Brand Co., Ltd., priority 2006, dated 2012).
No end group written: not given here.

Assay: general procedure: Fmoc solid-phase peptide synthesis; HMP resin
Settings: whole synthesis, 215 nm, scale 0.25 mmol

Question: Which “final HPLC purity” value does the source give for HPIKHQGLPQ here?
Answer: The value was 98%.
